Assay results as given in the supplement of paper PMC4604168 (melanoma cell lines).
The other results are listed elsewhere or left out. Many values rest on one well or one pass, so single values are uncertain.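 Imaging used 1,536-well plates; nuclei positive for cleaved PARP by antibody were divided by total DNA-stained nuclei to yield the apoptosis fraction. Doses for screening kept most cells viable, and cell lines differ markedly in resting and induced cleaved-PARP levels.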

Tested on: WM451Lu
Experiment: cleaved PARP positive nuclei fraction relative to DMSO control; melanoma cells; higher = more apoptosis
Conditions: library dose: low library concentration; 72 h

| SMILES | cleaved PARP positive nuclei fraction [%] |
| --- | --- |
| O=C(CCCCCCC(=O)Nc1ccccc1)NO [vorinostat] + CC(C)(C)c1cnc(CSc2cnc(NC(=O)C3CCNCC3)s2)o1 [SNS-032] (first compound 0.08 µM, partner dose 0.01 µM) | 53.9 |
| C=CCNC1=C2C[C@@H](C)C[C@H](OC)[C@H](O)[C@@H](C)/C=C(\C)[C@H](OC(N)=O)[C@@H](OC)/C=C\C=C(/C)C(=O)NC(=CC1=O)C2=O [Tanespimycin] + CC(C)(C)c1cnc(CSc2cnc(NC(=O)C3CCNCC3)s2)o1 [SNS-032] (first compound 0.002 µM, partner dose 0.01 µM) | 72.4 |
| CC(=O)c1c(C)c2cnc(Nc3ccc(N4CCNCC4)cn3)nc2n(C2CCCC2)c1=O [palbociclib] + OCCn1cc(-c2cnc3nnn(Cc4ccc5ncccc5c4)c3n2)cn1 [PF04217903] (first compound 0.04 µM, partner dose 1 µM) | 44.4 |
| C=CCNC1=C2C[C@@H](C)C[C@H](OC)[C@H](O)[C@@H](C)/C=C(\C)[C@H](OC(N)=O)[C@@H](OC)/C=C\C=C(/C)C(=O)NC(=CC1=O)C2=O [Tanespimycin] + CN(NC(=O)CC(=O)NN(C)C(=S)c1ccccc1)C(=S)c1ccccc1 [STA4783] (first compound 0.002 µM, partner dose 0.006 µM) | 162 |
| CC1(C)NC(=O)N(c2ccc([N+](=O)[O-])c(C(F)(F)F)c2)C1=O [nilutamide] + CCCCCCCCCCCC1=C(O)C(=O)C=C(O)C1=O [Embelin] (first compound 1 µM, partner dose 1.2 µM) | 72.8 |
| Cn1c(Nc2ccc(C(F)(F)F)cc2)nc2cc(Oc3ccnc(-c4ncc(C(F)(F)F)[nH]4)c3)ccc21 + COCC[n+]1c2c(n(Cc3cnccn3)c1C)C(=O)c1ccccc1C2=O [YM155] (first compound 0.08 µM, partner dose 0.0004 µM) | 50.8 |
